Taken from: PubChem BioAssay AID652243 (Drosophila RNAi Screening Center, 2013)

- Assay: 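Fly genes required for human androgen receptor driven transcription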 (primary screen)
- Cells: Drosophila S2R+ cells
- Reagent: long dsRNA against Drosophila genes
- Duration: 72 h (48 h, then 24 h hormone)
- Challenge: synthetic androgen R1881 at 10 nM for 24 h
- Measurement: 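Firefly light from an androgen-responsive reporter and Renilla control light per well, raw and unnormalised, for each of two replicates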
- Direction: firefly reporter light: higher = more light from androgen-responsive reporter; Renilla control light: higher = more constitutive control signal (cell number, transfection)
- Rule for the call: 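Hit when the log firefly-to-Renilla ratio dropped or increased by a fixed fold versus the mean of GFP or LacZ controls across duplicate plates; lowering cut given as 1.5 and as 3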
- Meaning of the calls: active = hit: reporter lowered or raised; inactive = no hit
The deposit covers about 24,000 reagents; shown is an unselected part of those that have a named target and a result. In the full data, 246 (1%) are marked active. 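Plates not normalised; calls are printed but the firefly/Renilla ratio behind them is not deposited; fold cut for lowering reported inconsistently.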 Raw values vary from plate to plate and are shown uncorrected. The numbers tell different reagents against one gene apart. A plus sign joins genes that one reagent is predicted to hit. No sequences are given here. The record does not give: the amount of reagent.

Against CG32694 #1, the entry reads firefly reporter light, replicate 1 = 2.46e5; firefly reporter light, replicate 2 = 3.40e5; Renilla control light, replicate 1 = 2.40e6; Renilla control light, replicate 2 = 3.02e6; inactive.
CG32694 #2 gave firefly reporter light, replicate 1 = 4.53e5; firefly reporter light, replicate 2 = 5.83e5; Renilla control light, replicate 1 = 2.70e6; Renilla control light, replicate 2 = 3.43e6; inactive.
CG32694 #3 gave firefly reporter light, replicate 1 = 3.82e5; firefly reporter light, replicate 2 = 3.55e5; Renilla control light, replicate 1 = 6.91e5; Renilla control light, replicate 2 = 5.57e5; inactive.
For CG32694 #4, the values are firefly reporter light, replicate 1 = 1.16e6; firefly reporter light, replicate 2 = 1.14e6; Renilla control light, replicate 1 = 1.59e6; Renilla control light, replicate 2 = 1.85e6; inactive.
For CG32694 #5 the deposit lists firefly reporter light, replicate 1 = 1.15e6; firefly reporter light, replicate 2 = 1.42e6; Renilla control light, replicate 1 = 1.31e6; Renilla control light, replicate 2 = 1.59e6; inactive.
Silencing of tef #1 came out at: firefly reporter light, replicate 1 = 7.83e5; firefly reporter light, replicate 2 = 5.76e5; Renilla control light, replicate 1 = 7.85e5; Renilla control light, replicate 2 = 6.38e5; inactive.
tef #2 gave firefly reporter light, replicate 1 = 6.30e5; firefly reporter light, replicate 2 = 6.53e5; Renilla control light, replicate 1 = 2.75e6; Renilla control light, replicate 2 = 2.25e6; inactive.
For tef #3, the entry reads firefly reporter light, replicate 1 = 3.69e5; firefly reporter light, replicate 2 = 3.30e5; Renilla control light, replicate 1 = 8.34e5; Renilla control light, replicate 2 = 4.07e5; inactive.
For CG14820, the entry reads firefly reporter light, replicate 1 = 2.56e5; firefly reporter light, replicate 2 = 1.72e5; Renilla control light, replicate 1 = 3.28e6; Renilla control light, replicate 2 = 1.95e6; inactive.
With knock-down of Tango10 #1 the results were firefly reporter light, replicate 1 = 1.34e5; firefly reporter light, replicate 2 = 1.05e5; Renilla control light, replicate 1 = 1.08e6; Renilla control light, replicate 2 = 8.08e5; inactive.
For Tango10 #2, the values are firefly reporter light, replicate 1 = 3.47e5; firefly reporter light, replicate 2 = 2.43e5; Renilla control light, replicate 1 = 5.09e5; Renilla control light, replicate 2 = 3.82e5; inactive.
Depletion of CG1998 resulted in: firefly reporter light, replicate 1 = 3.38e5; firefly reporter light, replicate 2 = 3.35e5; Renilla control light, replicate 1 = 3.81e6; Renilla control light, replicate 2 = 3.61e6; inactive.
KP78a + KP78b #1 gave firefly reporter light, replicate 1 = 91601; firefly reporter light, replicate 2 = 1.12e5; Renilla control light, replicate 1 = 1.48e6; Renilla control light, replicate 2 = 1.26e6; inactive.
With knock-down of KP78a + KP78b #2, the screen gave firefly reporter light, replicate 1 = 1.20e5; firefly reporter light, replicate 2 = 1.09e5; Renilla control light, replicate 1 = 2.36e6; Renilla control light, replicate 2 = 2.03e6; inactive.

Not a retest: 2 of the entries above.
Tango10 #2 — firefly reporter light, replicate 1: 3.47e5; firefly reporter light, replicate 2: 2.43e5; Renilla control light, replicate 1: 5.09e5; Renilla control light, replicate 2: 3.82e5; call: inactive
CG1998 — firefly reporter light, replicate 1: 3.38e5; firefly reporter light, replicate 2: 3.35e5; Renilla control light, replicate 1: 3.81e6; Renilla control light, replicate 2: 3.61e6; call: inactive
